Test system: HeLa
Test: Antiproliferative activity against human HeLa cells measured after 72 hrs by MTT assay
Assay type: functional, cell-based

## COc1cccc2c1C(=O)c1c(O)c3c(c(O)c1C2=O)C[C@@](O)(C(=O)CO)C[C@@H]3O[C@H]1C[C@H](N)[C@H](O)[C@H](C)O1 [DOXORUBICIN]
  IC50: 900 nM

From ChEMBL document CHEMBL5576107, “Wajeepeptin, a Cytotoxic and Antitrypanosomal Cyclic Depsipeptide from a Marine Moorena sp. Cyanobacterium” (J Nat Prod, 2024)
